For at least one compound, name, drawing or mass did not settle the structure.
Biological target: Gelatinase
Assay: MMP inhibition by particle concentration fluorescence technique (gelatinase)
Type: biochemical
Conditions: pH 7.5; 15 min enzyme preincubation; substrate 1-3 h at room temperature; read-out: MMP Inhibition Constants, Gelatinase Ki
Method: Inhibitory activity is evaluated in one or more of the MMP enzymes (stromelysin, gelatinase, and collagenase) in vitro using a particle concentration fluorescence techniques. An inhibitor binds to MMP enzymes prevents the degradation of a substrate of stromelysin, gelatinase, or collagenase. The substrate is attached with a fluorescein and a biotin. The intact substrate then binds to an avidin-coated particle via the biotin moiety. Once the particle is washed and dried, a fluorescent signal is generated since the fluorescent group is attached to the particle. Without an inhibitor present, the substrate is degraded by MMP enzymes and the fluorescein group is removed, therefore, no fluorescent signal can be detected. Testing compounds are dissolved in DMSO to the desired concentration, then the solutions are diluted to 1:5 with MMP buffer (50 mM Tris-HCl, pH 7.5; 150 mM NaCl; 0.02% NAN3). Serial two-fold dilutions of each compound are prepared. A concentrated, activated enzyme solution is transferred into each plate of the testing compounds, and the mixture is incubated at room temperature for 15 minutes. Thawed MMP substrate is then added into all plates, and the plates are incubate in the dark for 1-3 hours at room temperature. At this point, the substrate mixture is reacted with 0.1% avidin-coated polystyrene particles.

Ki [nM]	Structure (SMILES)
52.2	CCOC(=O)N(CC[C@@H](C(=O)NO)[C@]1(CC(C)C)CCN(CCc2ccccc2)C1=O)C(=O)OCc1ccccc1 (relative stereo) [Example 70, Ethyl Phenylmethyl[4-(hydroxyamino)-3-[3-(2-methylpropyl)-2-oxo-1-(2-phenylethyl)-3-pyrrolidinyl]-4-oxobutyl]imidodicarbonate]
31.9	CC(C)C[C@@]1([C@@H](CCNC(=O)c2cccc(F)c2)C(=O)NO)CCN(CCc2ccccc2)C1=O (relative stereo) [Example 77, α-[2-[(3-Fluorobenzoyl)amino]ethyl]-N-hydroxy-3-(2-methylpropyl)-2-oxo-1-(2-phenylethyl)-3-pyrrolidineacetamide]

Source: patent publication US5712300A, “Hydroxamic acid derivatives useful for the treatment of diseases related to connective tissue degradation” (priority 1997, dated 1998)
